The results in this text go back to patent US20060160117A1.

The target of this assay is T1, MTase(R124) (UniProt P10484).
T1 sequence (looked up) 1: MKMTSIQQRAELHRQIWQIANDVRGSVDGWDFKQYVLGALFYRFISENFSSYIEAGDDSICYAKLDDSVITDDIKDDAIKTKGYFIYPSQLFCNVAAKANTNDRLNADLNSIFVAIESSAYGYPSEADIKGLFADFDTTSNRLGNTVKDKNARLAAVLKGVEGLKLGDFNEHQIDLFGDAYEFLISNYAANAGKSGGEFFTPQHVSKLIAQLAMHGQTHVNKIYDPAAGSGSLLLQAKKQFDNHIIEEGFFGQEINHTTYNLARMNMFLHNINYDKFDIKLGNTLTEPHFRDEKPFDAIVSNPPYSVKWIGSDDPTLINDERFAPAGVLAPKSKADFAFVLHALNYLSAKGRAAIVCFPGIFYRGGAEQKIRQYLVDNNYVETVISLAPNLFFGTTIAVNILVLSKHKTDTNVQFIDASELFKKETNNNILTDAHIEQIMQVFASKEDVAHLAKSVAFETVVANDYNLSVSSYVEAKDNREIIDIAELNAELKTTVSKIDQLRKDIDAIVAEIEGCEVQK
T1 sequence (looked up) 2: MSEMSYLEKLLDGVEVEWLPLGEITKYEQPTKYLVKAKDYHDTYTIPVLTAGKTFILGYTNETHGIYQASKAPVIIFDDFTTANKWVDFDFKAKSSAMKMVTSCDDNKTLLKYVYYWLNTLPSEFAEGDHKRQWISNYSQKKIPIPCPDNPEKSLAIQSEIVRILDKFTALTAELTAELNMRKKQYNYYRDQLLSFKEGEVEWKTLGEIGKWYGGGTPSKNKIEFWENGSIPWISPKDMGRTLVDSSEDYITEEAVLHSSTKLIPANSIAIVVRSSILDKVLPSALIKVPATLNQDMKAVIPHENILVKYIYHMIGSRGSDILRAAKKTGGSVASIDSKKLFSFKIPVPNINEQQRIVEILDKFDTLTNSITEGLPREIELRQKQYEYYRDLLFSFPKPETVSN
Kind of assay: assembly of 50 nM MTase(R124) and 40 nM HsdR(R124) on pCFD30 DNA, checked by a cleavage test on agarose gel.

These are yes or no findings as the source states them, for the method shown. Some entries that bind do so weakly or less than the wild type.

B1: HsdR(R124) (enzyme, UniProt P10486 1-1038, looked up)
chain: MTHQTHTIAESNNFIVLDKYIKAEPTGDSYQSESDLERELIQDLRNQGYEFISVKSQSAMLANVREQLQNLNGVVFNDSEWRRFTEQYLDNPSDGILDKTRKIHIDYICDFIFDDERLENIYLIDKKNLMRNKVQIIQQFEQAGSHANRYDVTILVNGLPLVQIELKKRGVAIREAFNQIHRYSKESFNSENSLFKYLQLFVISNGTDTRYFANTTKRDKNSFDFTMNWAKSDNTLIKDLKDFTATCFQKHTLLNVLVNYSVFDSSQTLLVMRPYQIAATERILWKIKSSFTAKNWSKPESGGYIWHTTGSGKTLTSFKAARLATELDFIDKVFFVVDRKDLDYQTMKEYQRFSPDSVNGSENTAGLKRNLDKDDNKIIVTTIQKLNNLMKAESDLPVYNQQVVFIFDECHRSQFGEAQKNLKKKFKRYYQFGFTGTPIFPENALGSETTASVFGRELHSYVITDAIRDEKVLKFKVDYNDVRPQFKSLETETDEKKLSAAENQQAFLHPMRIQEITQYILNNFRQKTHRTFPGSKGFNAMLAVSSVDAAKAYYATFKRLQEEAANKSATYKPLRIATIFSFAANEEQNAIGEISDETFDTSAMDSSAKEFLDAAIREYNSHFKTNFSTDSNGFQNYYRDLAQRVKNQDIDLLIVVGMFLTGFDAPTLNTLFVDKNLRYHGLMQAFSRTNRIYDATKTFGNIVTFRDLERSTIDAITLFGDKNTKNVVLEKSYTEYMEGFTDAATGEAKRGFMTVVSELEQRFPDPTSIESEKEKKDFVKLFGEYLRAENILQNYDEFATLKALQQIDLSDPVAVEKFKAEHYVDDEKFAELQTIRLPADRKIQDYRSAYNDIRDWQRREKEAEKKEKSTTDWDDVVFEVDLLKSQEINLDYILGLIFEHNRQNKGKGEMIEEVKRLIRSSLGNRAKEGLVVDFIQQTNLDDLPDKASIIDAFFTFAQREQQREAEALIKEENLNEDAAKRYIRTSLKREYATENGTELNETLPKLSPLNPQYKTKKQAVFQKIVSFIEKFKGVGGKI
Regarding B1, the binding result is recorded as “binds”.
